Source: PubChem BioAssay AID1662 (Broad Institute, 2009)
Screen size: about 300,000 compounds; about 4,000 (1.3%) were called active. Inconclusive results, whose numbers are uncertain, are shown with a selection of clear calls.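 Rule for the calls: active = mean replicate score, as percent of positive control median, at least 50; inconclusive = mean below 50 but one replicate at or above 50; inactive = mean and every replicate below 50.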

Test: kanamycin survival loss of SKKanGAS strain – BacTiter-Glo luminescence, streptokinase expression inhibitor project, primary screen (AID 1662);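 note: strain carries kanamycin resistance gene driven by streptokinase promoter and grows in 40 µg/ml kanamycin; loss of luminescence reflects streptokinase promoter inhibition or plain growth inhibition; 0% = median of DMSO wells and 100% = positive control at its reference dose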
Conditions: S. pyogenes SKKanGAS, kanamycin growth, 6 h, at 7.5 µM, stronger effect = higher value

SMILES | inhibition
COc1ccc(-c2nnc(NC(=O)c3ccccc3C)o2)cc1 | inactive: 33.5%
O=C(O)CCCN1C(=O)/C(=C\c2ccc(-c3nc4ccccc4s3)o2)SC1=S | inconclusive: 38%
CCOC(=O)c1c(-c2ccc(-c3ccccc3)cc2)csc1NC(=O)CNCCN(C)C | active: 112%
COc1ccc(N2CCN(C(=O)c3cc(C)oc3C)CC2)cc1 | inconclusive: 41.7%
CC(/C=C1\SC(=S)N(NS(=O)(=O)c2ccc(C)cc2)C1=O)=C\c1ccccc1 | active: 78.3%
Cc1ccc(O)c(C(=O)CC(=O)c2ccc(Cl)cc2)c1 | active: 96.4%
Oc1ccc(Br)cc1/C=N/Nc1nc(N2CCCCC2)nc(N2CCOCC2)n1 | inconclusive: 48.5%
O=C(CSc1ccc(Cl)cc1)Nc1ccccc1Oc1ccccc1 | inactive: -1.83%
CC(=O)Nc1ccc(S(=O)(=O)NCCS(=O)(=O)N2CCN(c3ccccc3)CC2)cc1 | inconclusive: 44.6%
O=C(CNCCC1=CCCCC1)Nc1ccccc1N1CCCCCC1 | inconclusive: 29.3%
Cc1ccc(Nc2nc(N/N=C\c3ccc4c(c3)OCO4)nc(N3CCOCC3)n2)cc1 | inconclusive: 42.1%
CC/C(=C/c1ccccc1)c1cccc2[nH]c3c(OC)cccc3c12 | active: 99%
COc1cccc(Sc2nc(-c3ccccc3)ncc2S(C)(=O)=O)c1 | inactive: -1.2%
Fc1ccccc1CNc1ccc(Cl)c(Cl)c1 | active: 56.2%
CN(C)S(=O)(=O)c1cccc(-c2nn(-c3ccccc3)cc2/C=C(\C#N)c2nc3ccccc3[nH]2)c1 | inactive: 35%
Cc1cccc(OCC(=O)Nc2ccncc2)c1 | inconclusive: 40.9%
COc1ccc(C(C)(C)C)cc1NC(=S)NCCN1CCOCC1 | inactive: -4.18%
CC(=O)Nc1ccc(S(=O)(=O)N2CCN=C2SCc2ccc(C)cc2)cc1 | inconclusive: 45.4%
COc1ccc(-n2nc3cc(C)c(NC(=O)C(C)C)cc3n2)cc1 | inconclusive: 24.9%

SMILES | inhibition
COc1ccc(N=C2NN=C(c3c(C)[nH]c4ccccc34)CS2)cc1 | inconclusive: 48.5%
CCOc1ccccc1NC(=O)NCc1ccc2c(c1)OCO2 | inconclusive: 36.1%
O=S(=O)(NCc1nc(-c2ccccc2)no1)c1ccc(F)cc1 | inconclusive: 46.9%
Cc1ccccc1NC(=O)Cc1nnc(SCC(=O)c2ccc(Br)cc2)n1C | inactive: -3.94%
CC(C)(CN=C1NS(=O)(=O)c2ccccc21)CNC(=O)c1ccccc1 | inconclusive: 48%
CCOc1ccc(S(=O)(=O)NN)cc1 | inactive: 0.866%
NS(=O)(=O)c1ccc(-c2ccc(/C=C3\SC(=S)N(C4CCS(=O)(=O)C4)C3=O)o2)cc1 (configuration not stated) | active: 73.4%
COc1ccc(-c2cc3nc(CCl)[nH]c(=O)c3s2)cc1 | inconclusive: 36.4%
Cc1ccccc1-c1cc2nc(-c3ccc([N+](=O)[O-])cc3)cc(=O)n2[nH]1 | inconclusive: 32.6%
Cc1nc(SCC(=O)NCC2CCCO2)c2c3c(sc2n1)CCC3 (configuration not stated) | inactive: 14.6%
COc1ccc(NC(=O)CSc2ccc3nnc(-c4ccccn4)n3n2)c(OC)c1 | inconclusive: 47.2%
Cc1cc(C)c(C(=O)N2CCCC(N3CCN(c4cccc(C(F)(F)F)c4)CC3)C2)o1 (configuration not stated) | inactive: -5.74%
O=S(=O)(Cc1nnnn1-c1ccccc1)c1ccc(F)cc1 | inconclusive: 47.3%
Cc1[nH]nc(Nc2ccc(C(C)C)cc2)c1[N+](=O)[O-] | inconclusive: 48.9%
Cc1nc(C)n(C(C)CNC(=O)c2ccco2)n1 (configuration not stated) | inactive: -6.53%
Cc1ccc2nc(-c3cccc(S(=O)(=O)N4CCCC4)c3)cn2c1 | inactive: -4.14%
COc1ccc(C(=O)NNC(=S)NC(=O)C(C)(C)C)cc1 | active: 68.4%
CC(C)N=C(NS(=O)(=O)c1cccs1)c1ccccc1 | inconclusive: 45.3%
COc1ccc(C2=NN(C(=O)CN3CCCCC3)C(c3ccc(OC)cc3)C2)cc1 (configuration not stated) | inactive: -2.14%

SMILES | inhibition
CCc1nc(SCC(=O)Nc2ccccc2OC)c2c(C)c(C)sc2n1 | inconclusive: 47.6%
COc1ccc(-c2oc(NC(=O)CCl)c(C#N)c2-c2ccc(OC)cc2)cc1 | inconclusive: 49%
O=C(Cc1ccccc1)N/N=C/c1ccc(S(=O)(=O)O)o1 | inactive: -5.39%
O=C1c2cnc3nc(SCc4ccccc4)nn3c2CC2c3ccccc3CCN12 (configuration not stated) | inactive: 37.1%
CCN(CC(=O)NCC1CCCO1)S(=O)(=O)c1ccc(Cl)cc1 (configuration not stated) | inconclusive: 42.2%
Cc1ccc(/C=N/NC(=O)C2=NNC(c3ccccc3)(c3ccccc3)C2)c(O)c1 | inconclusive: 47.6%
Cc1cc(NC(=O)c2ccccc2F)n(-c2nc3ccccc3[nH]2)n1 | inconclusive: 47.9%
CCCNC(=O)c1ccccc1NC(=O)c1ccc2c(c1)NC(=O)C(C)S2 (configuration not stated) | inconclusive: 47.2%
Clc1ccc(CSc2snnc2-c2ccccc2)cc1 | inconclusive: 21.7%
CCOC(=O)C(=O)N/N=C(/c1ccccc1)c1ccc(OC)cc1 | inactive: 4.61%
Cc1cc(NC(=O)Nc2cccc(Cl)c2)n(-c2ccccc2)n1 | inactive: -15.7%
CN(c1ccccc1C(=O)Nc1ccc(S(=O)(=O)N2CCCC2)cc1)S(C)(=O)=O | inconclusive: 22.9%
O=S(=O)(c1ccc(F)cc1)c1nc(-c2ccccc2)oc1N1CCOCC1 | active: 54.1%
OC(COc1cccc2ccccc12)CN1CCN(c2ccccc2Cl)CC1 (configuration not stated) | inconclusive: 41.5%
CCn1c(CNC(=O)c2cccs2)nnc1SCC(=O)Nc1cc(Cl)ccc1C | inactive: 1.03%
COc1ccccc1-c1ccc(SCC(=O)NCc2ccc3c(c2)OCO3)nn1 | inactive: -10.9%
O=C(Nn1c(C2CCCCC2)nc2ccccc2c1=O)c1cc(Cl)ccc1[N+](=O)[O-] | inactive: 5.74%
CCOC(=O)C1=C(C)NC(C)=C(C(=O)OCC)C1c1ccc([N+](=O)[O-])s1 | active: 51.2%
O=C(NC1CC(=O)N(c2ccc3c(c2)OCCO3)C1)N1CCC(O)CC1 (configuration not stated) | inactive: -3.9%

Arranged by formula weight (descending): some entries from above
SMILES | inhibition
COc1ccc(C(C)(C)C)cc1NC(=S)NCCN1CCOCC1 | inactive: -4.18%
COc1ccc(-n2nc3cc(C)c(NC(=O)C(C)C)cc3n2)cc1 | inconclusive: 24.9%
COc1ccc(-c2cc3nc(CCl)[nH]c(=O)c3s2)cc1 | inconclusive: 36.4%
